Structures can show the parent of a compound that is named as a salt.
Assay: Metabolomic profiling of blood plasma samples, ALS vs. symptom mimic disease subjects (Tables 5, 9)
Parameters: species or system human
Details: for % Change in ALS: blood plasma, ALS mean (172 subjects) vs symptom mimic disease mean (73 subjects), positive = increase in ALS, T-test; for Direction of change in ALS: plasma, ALS patients relative to symptom mimic disease patients, Random Forest and/or Wilcoxon (FDR < 0.15)

Compound	% Change in ALS [%]	Direction of change in ALS
1-eicosadienoylglycerophosphocholine	10	–
1-palmitoylplasmenylethanolamine	11	–
13-HODE + 9-HODE	15	–
CC(O)CO (stereo not drawn) [1,2-propanediol]	47	Higher
Cn1c(=O)c2c([nH]c(=O)n2C)n(C)c1=O [1,3,7-trimethylurate]	−20	–
O=C(CO)CO [1,3-dihydroxyacetone]	5	–
OC[C@H]1OC[C@H](O)[C@@H](O)[C@@H]1O [1,5-anhydroglucitol (1,5-AG), 1,5-anhydroglucitol]	6	–
O[C@@H]1[C@@H](O)[C@@H]2OC[C@@H](O2)[C@H]1O [1,6-anhydroglucose]	9	–
Cn1c(=O)[nH]c2[nH]c(=O)n(C)c2c1=O [1,7-dimethylurate]	−20	–
CCCCC/C=C\C/C=C\C/C=C\C/C=C\CCCC(=O)OC[C@@H](O)COP(=O)([O-])OCC[N+](C)(C)C [1-arachidonoylglycerophosphocholine]	8	–
CCCCC/C=C\C/C=C\C/C=C\C/C=C\CCCC(=O)OC[C@@H](O)COP(=O)(O)OCCN [1-arachidonoylglycerophosphoethanolamine]	10	–
CCCCC/C=C\C/C=C\C/C=C\C/C=C\CCCC(=O)OC[C@@H](O)COP(=O)(O)OC1[C@H](O)[C@H](O)C(O)[C@H](O)[C@H]1O (stereo partly drawn) [1-arachidonoylglycerophosphoinositol]	12	–
CCCCCCCCCCCCCCCCC(=O)OC[C@@H](O)COP(=O)([O-])OCC[N+](C)(C)C [1-heptadecanoylglycerophosphocholine]	12	–
Cn1c(=O)[nH]c2[nH]c(=O)[nH]c2c1=O [1-methylurate]	−15	Lower
Cn1c(=O)[nH]c2nc[nH]c2c1=O [1-methylxanthine]	−16	–
CCCCCCCC/C=C\CCCCCCCC(=O)OC[C@@H](O)COP(=O)([O-])OCC[N+](C)(C)C [1-oleoylglycerophosphocholine]	6	–
CCCCCCCC/C=C\CCCCCCCC(=O)OCC(O)COP(=O)(O)OCCN (stereo not drawn) [1-oleoylglycerophosphoethanolamine]	11	–
CCCCCC/C=C\CCCCCCCC(=O)OCC(O)COP(=O)([O-])OCC[N+](C)(C)C (stereo not drawn) [1-palmitoleoylglycerophosphocholine]	5	–
CCCCCCCCCCCCCCC(=O)OCC(O)COP(=O)([O-])OCC[N+](C)(C)C (stereo not drawn) [1-pentadecanoylglycerophosphocholine]	5	–
CCCCCCCCCCCCCCCCCC(=O)OC[C@@H](O)COP(=O)([O-])OCC[N+](C)(C)C [1-stearoylglycerophosphocholine]	18	–
CCCCCCCCCCCCCCCCCC(=O)OC[C@@H](O)COP(=O)(O)OC1[C@H](O)[C@H](O)C(O)[C@H](O)[C@H]1O (stereo partly drawn) [1-stearoylglycerophosphoinositol]	14	Higher
CCCCC/C=C\C/C=C\C/C=C\C/C=C\CCCC(=O)O[C@H](CO)COP(=O)(O)OCCN [2-arachidonoylglycerophosphoethanolamine]	18	–
O=C(O)CCC(O)C(=O)O (stereo not drawn) [2-hydroxyglutarate]	10	–
O=C(O)CNC(=O)c1ccccc1O [2-hydroxyhippurate (salicylurate), 2-hydroxyhippurate]	−62	–
CC(C)(O)C(=O)O [2-hydroxyisobutyrate]	8	–
CCCCCCC(O)C(=O)O (stereo not drawn) [2-hydroxyoctanoate]	−7	–

Compound	% Change in ALS [%]	Direction of change in ALS
CCCCCCCCCCCCCCC(O)C(=O)O (stereo not drawn) [2-hydroxypalmitate]	6	–
CCCCCCCCCCCCCCCCC(O)C(=O)O (stereo not drawn) [2-hydroxystearate]	9	–
CCC(C)C(=O)OC(CC(=O)[O-])C[N+](C)(C)C (stereo not drawn) [2-methylbutyroylcarnitine]	−7	–
CCCCCCCC/C=C\CCCCCCCC(=O)OC(CO)COP(=O)([O-])OCC[N+](C)(C)C (stereo not drawn) [2-oleoylglycerophosphocholine]	9	–
CCCCCCCC/C=C\CCCCCCCC(=O)OC(CO)COP(=O)(O)OCCN (stereo not drawn) [2-oleoylglycerophosphoethanolamine]	10	–
CCCCCCCCCCCCCCCC(=O)OC(CO)COP(=O)([O-])OCC[N+](C)(C)C (stereo not drawn) [2-palmitoylglycerophosphocholine]	9	–
CCCCCCCCCCCCCCCCCC(=O)O[C@H](CO)COP(=O)([O-])OCC[N+](C)(C)C [2-stearoylglycerophosphocholine]	14	–
O=C(O)CCc1cccc(O)c1 [3-(3-hydroxyphenyl)propionate]	−30	–
O=C(CCc1ccc(O)cc1)c1c(O)cc(O)cc1O [3-(4-hydroxyphenyl)-1-(2,4,6-trihydroxyphenyl)-1-propanone]	456	–
CC(=O)Nc1ccc(O)c(SC[C@H](N)C(=O)O)c1 [3-(cystein-S-yl)acetaminophen]	−37	–
CC(O)CC(=O)O (stereo not drawn) [3-hydroxybutyrate (BHBA), 3-hydroxybutyrate]	27	–
CC(CO)C(=O)O (stereo not drawn) [3-hydroxyisobutyrate]	−7	–
CCCCCC(O)CC(=O)O (stereo not drawn) [3-hydroxyoctanoate]	−5	–
Cn1cncc1C[C@H](N)C(=O)O [3-methylhistidine]	−30	–
CCc1ccc(OS(=O)(=O)[O-])cc1.[K+] [4-ethylphenylsulfate]	32	–
O=C(O)CNC(=O)c1ccc(O)cc1 [4-hydroxyhippurate]	15	–
O=C(O)Cc1ccc(O)cc1 [4-hydroxyphenylacetate]	−13	–
C=Cc1ccc(OS(=O)(=O)O)cc1 [4-vinylphenol sulfate]	−29	Lower
O=C1CCNC(=O)N1 [5,6-dihydrouracil]	27	Higher
C[C@@H](OS(=O)(=O)O)C1CC[C@H]2[C@@H]3CC[C@H]4C[C@H](OS(=O)(=O)O)CC[C@]4(C)[C@H]3CC[C@]12C (stereo partly drawn) [5alpha-pregnan-3beta,20alpha-diol disulfate]	−26	–
Cn1cnc2[nH]c(=O)[nH]c(=O)c21 [7-methylxanthine]	−45	Lower
CCCCCCC=CCCCCCCCCC(=O)O [10-heptadecenoate (17:1n7), 10-heptadecenoate]	10	–
CCCCCCCCC=CCCCCCCCCC(=O)O [10-nonadecenoate (19:1n9), 10-nonadecenoate]	19	–
CC(C)CCCCCCCCCCCCCCCC(=O)O [17-methylstearate]	10	–
C[C@]12CC[C@H]3[C@@H](CC=C4C[C@@H](OS(=O)(=O)O)CC[C@@]43C)[C@@H]1CC[C@@H]2C(=O)COS(=O)(=O)O [21-hydroxypregnenolone disulfate]	5	–
CC(=O)NCCCC[C@H](N)C(=O)O [N6-acetyllysine]	−8	–

Compound	% Change in ALS [%]	Direction of change in ALS
O=C(O)CNC(=O)c1ccco1 [N-(2-furoyl)glycine]	−22	–
CC(=O)NCC(=O)O [N-acetylglycine]	10	–
CC(=O)N[C@@H](CCCN)C(=O)O [N-acetylornithine]	−11	–
CN1CCC[C@H]1C(=O)O [N-methyl proline]	−8	–
CC(=O)CC(=O)O [acetoacetate]	9	–
CCCCC/C=C\C/C=C\C/C=C\C/C=C\CCCCCC(=O)O [adrenate (22:4n6), adrenate]	15	–
CCC(=O)C(=O)O [alpha-ketobutyrate]	20	Higher
Cc1c(C)c2c(c(C)c1O)CC[C@@](C)(CCC[C@H](C)CCC[C@H](C)CCCC(C)C)O2 [alpha-tocopherol]	5	–
O=C[C@@H](O)[C@H](O)[C@H](O)CO [arabinose]	16	–
OC[C@@H](O)C(O)[C@H](O)CO [arabitol]	−7	–
C=CC1=C(C)/C(=C/c2[nH]c(Cc3[nH]c(/C=C4\NC(=O)C(C)=C4C=C)c(C)c3CCC(=O)O)c(CCC(=O)O)c2C)NC1=O [bilirubin (E,Z or Z,E), bilirubin]	15	–
C=CC1=C(C)/C(=C/C2=NC(=C\c3[nH]c(/C=C4\NC(=O)C(C)=C4C=C)c(C)c3CCC(=O)O)/C(CCC(=O)O)=C2C)NC1=O [biliverdin]	9	–
CC(C)[C@H](C)CC[C@@H](C)[C@H]1CC[C@H]2[C@@H]3CC=C4C[C@@H](O)CC[C@]4(C)[C@H]3CC[C@]12C [campesterol]	11	–
CCCCCCCCCC(=O)O [caprate (10:0), caprate]	25	–
CCCCCC(=O)O [caproate (6:0), caproate]	5	–
C[N+](C)(C)CC(O)CC(=O)[O-] (stereo not drawn) [carnitine]	4	–
O=S(=O)(O)Oc1ccccc1O [catechol sulfate]	−30	–
C[C@H](CCC(=O)O)[C@H]1CC[C@H]2[C@@H]3[C@H](O)C[C@@H]4C[C@H](O)CC[C@]4(C)[C@H]3C[C@H](O)[C@]12C [cholate]	14	–
CC(C)CCC[C@@H](C)[C@H]1CC[C@H]2[C@@H]3CC=C4C[C@@H](O)CC[C@]4(C)[C@H]3CC[C@]12C [cholesterol]	5	Higher
CCCCCC/C=C\CCCCCCCCCC(=O)O [cis-vaccenate (18:1n7), cis-vaccenate]	15	–
C[C@]12CCC(=O)C=C1CC[C@@H]1[C@@H]2[C@@H](O)C[C@@]2(C)[C@H]1CC[C@]2(O)C(=O)CO [cortisol]	8	–
CN1C(=O)CC[C@H]1c1cccnc1 [cotinine]	92	–
CC(C)C[C@@H]1NC(=O)[C@@H]2CCCN2C1=O [cyclo(leu-pro)]	8	–
CCCCCCCCCC(=O)O[C@H](CC(=O)[O-])C[N+](C)(C)C [decanoylcarnitine]	−8	–

Reference: patent US20140303228A1, “Biomarkers for Amyotrophic Lateral Sclerosis and Methods Using the Same” (METABOLON, INC., priority 2011, published 2014)
